Results deposited as PubChem BioAssay AID1671195 (Yale University, 2021)
Test: 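Genes whose knockdown alters LDL uptake in liver cancer cells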 (primary screen). Cells: human Huh7 hepatoma cells. Reagents: siRNA pool against human genes, 18 nM. Duration: about 2 to 2.5 days of knockdown, then 8 h LDL uptake. Treatment: DiI-labelled LDL at 30 µg/ml for 8 h, in lipoprotein-deficient serum medium. Read-out: 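Fluorescent LDL signal imaged in cells, scaled to the plate median, robust z-score for each replicate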. Direction: robust z-score: higher = more LDL uptake after knockdown. Hit rule: 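Active when two or more replicates show a robust z-score above 2 or below -2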.
Here is one part, drawn at random, of about 22,000 reagents tested. About 1,510 of them (6.9%) were called active. 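Active includes knockdowns raising or lowering LDL uptake; positive z-scores mean more uptake, negative mean less.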 Entries without a mark were called inactive. The numbers tell different reagents against one gene apart.

gene | reagent no. | robust z-score, replicate 1 | robust z-score, replicate 2 | robust z-score, replicate 3
STK38 | 1 | -0.688 | -1.3 | -0.536
STS | 1 | 0.407 | -0.341 | 0.176
PM20D1 | 1 | -0.388 | -0.784 | 0.369
CFAP45 | 1 | 2.8 (active) | 1.12 | 2.3
FOXRED1 | 1 | -0.332 | 0.582 | 0.356
TXNL4A | 1 | 2.23 (active) | 1.94 | 2.28
MYO19 | 1 | -0.999 | -0.62 | -0.889
LINC00298 | 1 | 0.926 | 0.94 | 0.956
UBE2M | 1 | 0.918 | 0.448 | -0.568
PKIB | 1 | -0.727 | -1.22 | -1.1
CCDC97 | 1 | -0.177 | 0.404 | 0.185
UNC5C | 1 | -1.25 | -1 | -1.27
NT5C1B | 1 | 0.147 | -0.119 | 0.329
MARCHF8 | 1 | -1.02 | 0.329 | -0.474
CRH | 1 | 2.35 (active) | 2.35 | 3.87
LOC149704 (retired record) | 1 | -0.0522 | -0.733 | -0.644
RRAGB | 1 | 0.919 | -0.667 | 0.426
AJUBA | 1 | 0.696 (active) | 3.48 | 2.3
NRGN | 1 | -0.0593 | -1.26 | -0.935
HOXA6 | 1 | 0.271 | 1.47 | 1.57
WDSUB1 | 1 | -0.879 | -1.51 | 0.0172
COL20A1 | 1 | -0.0617 | 0.102 | 1.71
PAAF1 | 1 | 1.77 | 0.953 | 0.893
TRAF7 | 1 | 0.0983 | 0.335 | -0.159
GOT2 | 1 | -0.786 | 0.624 | -0.889
LINC01124 | 1 | 0.163 | 0.362 | -0.133
TENT5A | 1 | -1.65 | -0.288 | -1.86
UCKL1 | 1 | 0.117 | 3.5 | -0.322
RPP21 | 1 | -0.403 | -0.308 | -0.0275
ABCB9 | 1 | -0.209 | -0.191 | -0.867
LDHD | 1 | -2.2 (active) | -2.05 | -2.32
RHOC | 1 | 0.538 | -1.11 | -1.17
THBD | 1 | 0.663 | 0.498 | 0.515
PSG2 | 1 | 0.243 | 0.416 | 0.842
SPAST | 1 | -0.928 | 0.695 | 0.0557
GANAB | 1 | 0.106 | -0.548 | -0.593
AQP8 | 1 | 1.05 | 0.536 | 1.49
LINC00917 | 1 | -0.245 | 0.789 | 0.161
TRPM2 | 1 | 0.937 | -0.0856 | 0.428
FTCD | 1 | -2.52 | -1.01 | 2.85
RILPL2 | 1 | 1.84 | 1.73 | 1.16
AGL | 1 | -0.634 | -0.476 | -0.653
LNPEP | 1 | -0.493 | -0.204 | -0.211
ACSF2 | 1 | 0.31 | -0.0292 | -0.229
MGA | 1 | 1.71 | -0.445 | 0.5
GPR142 | 1 | -0.406 | 0.439 | -0.353
TRAFD1 | 1 | -0.518 | -0.114 | -1.53
TOGARAM2 | 1 | 0.134 | -0.79 | -0.839
SPMIP11 | 1 | 0.547 | 1.07 | 0.889
DNER | 1 | 0.00575 | 0.373 | -0.162
OR10J5 | 1 | 0.981 | 0.25 | -0.0897
SYPL1 | 1 | 1.3 | 1.57 | 1.19
TTC34 | 1 | 2.34 (active) | 2.18 | 2.07
TTC34 | 2 | -0.713 | 0.54 | 0.429
FXYD6 | 1 | -0.319 | -0.0898 | 0.157
PSMA6 | 1 | -0.12 | 0.426 | 0.255
CD274 | 1 | 2.11 | 1.66 | 0.842
MTNR1A | 1 | -1.35 | -1.16 | -1.1
TMEM182 | 1 | -1.01 | -1.07 | -1.36
LOC256176 (retired record) | 1 | -1.25 | -0.772 | -0.772
OR5AS1 | 1 | 0.965 | 0.591 | 0.772
APOA1 | 1 | 0.555 | 0.892 | 0.749
INPP5E | 1 | -1.09 | -0.454 | -0.669
IRS2 | 1 | 1.04 | -0.413 | -0.166
ADAMTS15 | 1 | 2.02 | 1.23 | 1.63
DENND2A | 1 | 1.21 | 0.547 | 0.32
SPATA13 | 1 | 0.61 | 0.311 | 0.409
GCSH | 1 | -0.176 | -0.0916 | 0.182
HAUS5 | 1 | 0.854 | -0.874 | -0.0761
PPM1L | 1 | 1.11 | 1.48 | 1.33
KLHL27 | 1 | -0.861 | -1.22 | -1.26
RPS24 | 1 | -1.3 | -0.627 | -1.36
ZNF19 | 1 | 0.248 | 0.55 | -0.0562
PDPK2P | 1 | 0.0668 | 0.571 | 0.109
PCDHB6 | 1 | -0.825 | -1.1 | -0.838
LOC441859 (retired record) | 1 | 0.869 | 1.09 | 0.403
ACSL4 | 1 | -0.705 | -0.488 | -0.651
LOC100288496 | 1 | 0.949 | 0.229 | 0.251
HOXC9 | 1 | -1.44 | -1.62 | -1.35
SUDS3P1 | 1 | -1.07 | -0.513 | -0.789
IRF2BP2 | 1 | -1.8 | -1.74 | -1.91
GUCA1B | 1 | 1.5 (active) | 2.07 | 4.38
HFM1 | 1 | 2.32 (active) | 3.2 | 3.9
HFM1 | 2 | 0.298 | 0.606 | 0.766
LOC440708 (retired record) | 1 | -2.18 | -1.65 | -1.65
TNFSF13B | 1 | -0.283 | -1.11 | 0.225
TMEM129 | 1 | -0.151 | -1.14 | -0.646
